Test results published in PubChem BioAssay AID256 (DTP/NCI, 2004).
The list does not hold the whole screen: it is rich in T/C values a quarter to a half above the control, in often repeated tests (any T/C) and in doses without a T/C. Further doses and runs are listed elsewhere. T/C gives the treated animals as a percentage of the vehicle group. Some doses have a count of surviving animals in place of a T/C: the source files T/C as zero there, which appears to mark a toxic dose or a test without result, not a measured value. Some survivor counts are full or nearly so, which does not show that the dose was tolerated: survival well below the control is almost never listed, so the zero probably covers shortened survival too. Survivors were counted at the toxicity check, usually on the fifth day, unless a day is given; later deaths do not show. Schedule codes are those of the source, taken here to give the interval after Q, in days (D) or hours (H), and the number of doses after X. Some entries were tested several times; their values stand side by side, smallest first. For survival time, the PubChem record calls one and a half times the control and up active, and a quarter to a half above the control has no call in these data; cut-offs in other NCI protocols can differ.

System: CD2F1 mice, L1210 leukemia ip, survival T/C
Experiment: NCI In Vivo Anticancer Drug Screen. Data for tumor model L1210 Leukemia (intraperitoneal) in CD2F1 (CDF1) mice
Conditions: higher T/C = longer survival
Method in brief: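 Ratio T/C, where T is the treated-group value and C the vehicle-dosed control value, from mice implanted with a transplantable tumor.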

[1] = T/C endpoint: mean survival time, dose: 400.0 mg/kg/injection, schedule: Q04DX003 (ip), vehicle: saline
[2] = T/C endpoint: mean survival time, dose: 100.0 mg/kg/injection, schedule: Q01DX001 (ip), vehicle: saline with Tween-80
[3] = T/C endpoint: mean survival time, dose: 200.0 mg/kg/injection, schedule: Q01DX001 (ip), vehicle: saline with Tween-80
[4] = T/C endpoint: mean survival time, dose: 400.0 mg/kg/injection, schedule: Q01DX001 (ip), vehicle: saline with Tween-80
[5] = T/C endpoint: mean survival time, dose: 200.0 mg/kg/injection, schedule: Q04DX003 (ip), vehicle: saline with Tween-80
[6] = T/C endpoint: mean survival time, dose: 400.0 mg/kg/injection, schedule: Q04DX003 (ip), vehicle: saline with Tween-80

CC[n+]1ccc(Nc2ccc(NC(=O)c3ccc(Nc4cc[n+](CC)c5ccc(N)cc45)cc3)cc2)cc1
T/C (T/C endpoint: mean survival time, dose: 0.5 mg/kg/injection, schedule: Q01DX009 (ip), vehicle: saline): 128 % of control | survivor count (T/C endpoint: mean survival time, dose: 8.0 mg/kg/injection, schedule: Q01DX009 (ip), vehicle: water): 5 of 10

CCNc1nc(NC(C)C)nc(SC)n1
survivor count [1]: 2 of 6

O=C(O)CBr.O=C(O)CBr.[NH-]C1CCCCCCC1[NH-].[Pt+2] (stereo not given)
T/C (T/C endpoint: mean survival time, dose: 37.5 mg/kg/injection, schedule: Q01DX001 (ip), vehicle: distilled water + Tween-80): 132 % of control | T/C (T/C endpoint: mean survival time, dose: 75.0 mg/kg/injection, schedule: Q01DX001 (ip), vehicle: distilled water + Tween-80): 147 % of control | T/C (T/C endpoint: mean survival time, dose: 150.0 mg/kg/injection, schedule: Q01DX001 (ip), vehicle: distilled water + Tween-80): 145 % of control

NCC[Se][Se]CCN
survivor count (T/C endpoint: median survival time, dose: 12.5 mg/kg/injection, schedule: Q01DX009 (ip), vehicle: suspension in saline): 2 of 6

CN(N=O)C(=O)Nc1ccc(C2CC(=O)N(C)C2=O)cc1 (stereo not given)
T/C (T/C endpoint: mean survival time, dose: 100.0 mg/kg/injection, schedule: Q01DX001 (ip), vehicle: distilled water + Tween-80): 127 % of control | T/C (T/C endpoint: mean survival time, dose: 200.0 mg/kg/injection, schedule: Q01DX001 (ip), vehicle: distilled water + Tween-80): 127 % of control

C1C[S][Sn]2([S]CCO1)[S]CCOCC[S]2
survivor count [2]: 0 of 3 | survivor count [3]: 0 of 3 | survivor count [4]: 0 of 3

CN(C)C1c2ccccc2-c2ccc(F)cc21 (stereo not given)
survivor count (T/C endpoint: mean survival time, dose: 200.0 mg/kg/injection, schedule: Q01DX001 (ip), vehicle: carboxymethylcellulose (CMC)): 2 of 4 | survivor count (T/C endpoint: mean survival time, dose: 400.0 mg/kg/injection, schedule: Q01DX001 (ip), vehicle: carboxymethylcellulose (CMC)): 1 of 4

O=S(=O)(/C=C\c1ccccc1)/C=C/c1ccccc1
survivor count [5]: 6 of 6

COc1cc(-c2ccc(-[n+]3nc(Cc4ccc5c(c4)OCO5)nn3-c3ccccc3)c(OC)c2)ccc1-[n+]1nc(Cc2ccc3c(c2)OCO3)nn1-c1ccccc1
survivor count [6]: 0 of 6

CC[N+](CC)(CC)CCCNC1=CC(=O)C(NCCC[N+](CC)(CC)CC)=CC1=O
survivor count (T/C endpoint: mean survival time, dose: 100.0 mg/kg/injection, schedule: Q04DX003 (ip), vehicle: saline): 0 of 3 | survivor count (T/C endpoint: mean survival time, dose: 200.0 mg/kg/injection, schedule: Q04DX003 (ip), vehicle: saline): 0 of 3 | survivor count [1]: 0 of 3

C/C=C\C[P+](c1ccccc1)(c1ccccc1)c1ccccc1
survivor count [2]: 0 of 6 | survivor count [3]: 0 of 6 | survivor count [4]: 0 of 6

CCCCOCN(COCCCC)C(C)Cc1ccccc1 (stereo not given)
survivor count (T/C endpoint: mean survival time, dose: 400.0 mg/kg/injection, schedule: Q01DX009 (ip), vehicle: saline with Tween-80): 3 of 6

NC(=O)/C=C/C(=O)c1c(Cl)cccc1Cl
survivor count (T/C endpoint: mean survival time, dose: 25.0 mg/kg/injection, schedule: Q01DX009 (ip), vehicle: saline with Tween-80): 0 of 10 and 0 of 6

C[C@H]1CN1C1=CC(=O)C(N2C[C@@H]2C)=CC1=O
T/C (T/C endpoint: mean survival time, dose: 1.0 mg/kg/injection, schedule: Q01DX009 (ip), vehicle: other): 125 % of control | T/C (T/C endpoint: mean survival time, dose: 1.39 mg/kg/injection, schedule: Q01DX009 (ip), vehicle: other): 134 % of control | T/C (T/C endpoint: mean survival time, dose: 1.5 mg/kg/injection, schedule: Q01DX009 (ip), vehicle: other): 125 % of control | T/C (T/C endpoint: mean survival time, dose: 2.08 mg/kg/injection, schedule: Q01DX009 (ip), vehicle: other): 128 % of control | T/C (T/C endpoint: mean survival time, dose: 2.3 mg/kg/injection, schedule: Q01DX009 (ip), vehicle: other): 135 % of control | T/C (T/C endpoint: mean survival time, dose: 5.56 mg/kg/injection, schedule: Q04DX003 (ip), vehicle: saline with Tween-80): 125 % of control | T/C (T/C endpoint: mean survival time, dose: 8.33 mg/kg/injection, schedule: Q04DX003 (ip), vehicle: saline with Tween-80): 145 % of control | T/C (T/C endpoint: mean survival time, dose: 8.4 mg/kg/injection, schedule: Q01DX001 (ip), vehicle: other): 130 % of control | survivor count (T/C endpoint: mean survival time, dose: 12.5 mg/kg/injection, schedule: Q01DX009 (ip), vehicle: other): 6 of 6 | T/C (T/C endpoint: mean survival time, dose: 12.5 mg/kg/injection, schedule: Q04DX003 (ip), vehicle: saline with Tween-80): 147 % of control | survivor count (T/C endpoint: mean survival time, dose: 19.0 mg/kg/injection, schedule: Q01DX001 (ip), vehicle: other): 6 of 6 | survivor count (T/C endpoint: mean survival time, dose: 25.0 mg/kg/injection, schedule: Q01DX009 (ip), vehicle: other): 1 of 6 | survivor count (T/C endpoint: mean survival time, dose: 28.5 mg/kg/injection, schedule: Q01DX001 (ip), vehicle: other): 5 of 6 | survivor count (T/C endpoint: mean survival time, dose: 100.0 mg/kg/injection, schedule: Q04DX003 (ip), vehicle: saline with Tween-80): 0 of 6 | survivor count [5]: 0 of 6 | survivor count [6]: 6 of 6
